Test results: article PMC10817417, “New L-Rhamnose-Binding Lectin from the Bivalve Glycymeris yessoensis: Purification, Partial Structural Characterization and Antibacterial Activity” (Marine Drugs, 2023)

tested on: T1, GYL-R; assay: glycan microarray, fluorescence; type: binding, Glycymeris yessoensis; settings: glycan immobilised on array; biotinylated GYL-R 50 µg/mL, FITC-streptavidin
T1 construct: native lectin purified from hemolymph plasma; mass 30,415 Da (MALDI-TOF), most likely monomer; N-terminus VNNXQNVDXDSWPFE; tryptic peptides LEYASYGR, YLSVVYTCK, LEAVNSVFGDPCVGTYK, EDTLVCELNTDLLSCEER, VNNCQNVDCDSWPFEYK; biotinylated for glycan array
Text: glycan microarray, fluorescence on GYL-R

| SMILES | Average RFU |
| --- | --- |
| C[C@@H]1OC(O)[C@H](O)[C@H](O)[C@H]1O (stereo partly drawn) [compound 20, L-Rhaα] | 64,931 RFU |
| CC(=O)N[C@H]1C(O)O[C@H](CO)[C@H](O)[C@@H]1O[C@H]1O[C@H](CO)[C@H](O)[C@H](O)[C@H]1O (some centres unmarked) [compound 78, Galα1-3GalNAcα] | 1061 RFU |
| CC(=O)N[C@H]1C(O)O[C@H](CO)[C@@H](O[C@H]2O[C@H](CO)[C@H](O)[C@H](O)[C@H]2O)[C@@H]1O (some centres unmarked) [compound 81, Galα1-4GlcNAcβ] | 17,157 RFU |
| CC(=O)N[C@H]1C(O)O[C@H](CO)[C@@H](O[C@@H]2O[C@H](CO)[C@H](O)[C@H](O)[C@H]2O)[C@@H]1O (some centres unmarked) [compound 97, Galβ1-4GlcNAcβ] | 735 RFU |
| OC[C@H]1O[C@H](O[C@@H]2[C@H](O)[C@@H](O)[C@H](O[C@H]3[C@H](O)[C@@H](O)C(O)O[C@@H]3CO)O[C@@H]2CO)[C@H](O)[C@@H](O)[C@H]1O (some centres unmarked) [compound 223, Galα1-4Galβ1-4Glcβ] | 1245 RFU |
| CC(=O)N[C@H]1C(O)O[C@H](CO)[C@@H](O[C@@H]2O[C@H](CO)[C@H](O[C@H]3O[C@H](CO)[C@H](O)[C@H](O)[C@H]3O)[C@H](O)[C@H]2O)[C@@H]1O (some centres unmarked) [compound 266, Galα1-4Galβ1-4GlcNAcβ] | 24,853 RFU |
| CC(=O)N[C@H]1C(O)O[C@H](CO)[C@@H](O[C@@H]2O[C@H](CO)[C@H](O[C@H]3O[C@H](CO)[C@H](O)[C@H](O)[C@H]3O)[C@H](O)[C@H]2O[C@@H]2O[C@@H](C)[C@@H](O)[C@@H](O)[C@@H]2O)[C@@H]1O (some centres unmarked) [compound 365, Galα1-4(Fucα1-2)Galβ1-4GlcNAcβ] | 47,673 RFU |
| CC(=O)N[C@H]1[C@H](OC[C@H]2O[C@@H](O[C@H]3[C@H](O)[C@@H](NC(C)=O)C(O)O[C@@H]3CO)[C@H](O)[C@@H](O)[C@H]2O)O[C@H](CO)[C@@H](O[C@@H]2O[C@H](CO)[C@H](O)[C@H](O)[C@H]2O)[C@@H]1O (some centres unmarked) [compound 387, Galβ1-4GlcNAcβ1-6Galβ1-4GlcNAcβ] | 1829 RFU |
| CC(=O)N[C@H]1C(O)O[C@H](CO)[C@H](O[C@H]2O[C@H](CO)[C@H](O)[C@H](O)[C@H]2O)[C@@H]1O (some centres unmarked) [compound 815, Galα1-4GalNAcα] | 12,517 RFU |
| OC[C@H]1O[C@H](O[C@@H]2[C@H](O)[C@@H](O)C(O)O[C@@H]2CO)[C@H](O)[C@@H](O)[C@H]1O (some centres unmarked) [compound 821, Galα1-4Galβ] | 2404 RFU |

tested on: T1, GYL-R; assay: hemagglutination inhibition; type: cell-based, Glycymeris yessoensis; settings: 4 agglutination doses of lectin, 2% erythrocytes, 0.01 M TBS, 1 h; also printed as mM
Text: hemagglutination inhibition on GYL-R

| SMILES | MIC ^b |
| --- | --- |
| OC[C@H]1OC(O)[C@H](O)[C@@H](O)[C@H]1O (stereo partly drawn) [D-Galactose] | 156 µg/mL (≈ 866 µM) |
| OC[C@H]1O[C@@H](O[C@H]2[C@H](O)[C@@H](O)C(O)O[C@@H]2CO)[C@H](O)[C@@H](O)[C@H]1O (some centres unmarked) [Lactose] | 313 µg/mL (≈ 914 µM) |
| OC[C@H]1O[C@H](OC[C@H]2O[C@H](O[C@]3(CO)O[C@H](CO)[C@@H](O)[C@@H]3O)[C@H](O)[C@@H](O)[C@@H]2O)[C@H](O)[C@@H](O)[C@H]1O [Rafinose] | 625 µg/mL (≈ 1240 µM) |

same assay, conditions: 4 agglutination doses of lectin, 2% erythrocytes, 0.01 M TBS, 1 h; printed mM column reads 0.12, which disagrees with 0.002 mg/mL

| SMILES | MIC ^b |
| --- | --- |
| C[C@@H]1OC(O)[C@H](O)[C@H](O)[C@H]1O (stereo partly drawn) [L-Rhamnose] | 2 µg/mL (≈ 12.2 µM) |

Converted amounts (≈) assume the structure as drawn.
